Experimental data taken from publication PMC2629585.
No constants are given. Whether binding was seen depends on the method and setting. Some results given as binding are weak or reduced against the parent protein; the word gives no strength.

The chains behind the UniProt entries cited, without tags or fusion partners. Residues count along the entry.
UniProt O00602, residues 30-326: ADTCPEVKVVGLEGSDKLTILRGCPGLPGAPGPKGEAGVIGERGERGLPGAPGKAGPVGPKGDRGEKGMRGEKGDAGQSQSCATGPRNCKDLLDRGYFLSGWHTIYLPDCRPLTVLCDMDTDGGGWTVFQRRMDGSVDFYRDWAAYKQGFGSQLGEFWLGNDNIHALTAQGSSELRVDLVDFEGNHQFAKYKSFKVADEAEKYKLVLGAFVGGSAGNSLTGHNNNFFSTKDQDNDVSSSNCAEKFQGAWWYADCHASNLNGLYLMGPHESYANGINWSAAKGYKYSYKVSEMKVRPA
UniProt O75636, residues 24-299: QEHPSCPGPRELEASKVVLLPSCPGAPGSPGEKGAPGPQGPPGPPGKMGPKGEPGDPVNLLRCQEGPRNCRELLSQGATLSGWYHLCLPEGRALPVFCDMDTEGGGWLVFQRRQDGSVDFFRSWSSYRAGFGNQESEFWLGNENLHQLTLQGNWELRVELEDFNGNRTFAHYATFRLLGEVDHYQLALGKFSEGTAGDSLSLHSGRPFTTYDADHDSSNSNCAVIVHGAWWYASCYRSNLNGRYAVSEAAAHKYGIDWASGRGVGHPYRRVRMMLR

Tests used:
M-ficolin, recombinant = M-ficolin, recombinant (UniProt O00602); test: ELISA; 0.8 ug ficolin (L-, M- or H-) immobilised first on Maxisorp wells, CRP added; bound CRP detected by antibody; HSA-coated wells subtracted; both purified
H-ficolin (human) = H-ficolin (human) (UniProt O75636); test: as above

binding (M-ficolin, recombinant): binds | binding (H-ficolin (human)): no binding
B1: C-reactive protein (CRP), human, purified (Sigma) (protein, UniProt P02741 19-224)
chain: QTDMSRKAFVFPKESDTSYVSLKAPLTKPLKAFTVCLHFYTELSSTRGYSIFSYATKRQDNEILIFWSKDIGYSFTVGGSEILFEVPEVTVAPVHICTSWESASGIVEFWVDGKPRVRKSLKKGYTVGAEASIILGQEQDSFGGNFEGSQSLVGDIGNVNMWDFVLSPDEINTIYLGGPFSPNVLNWRALKYEVQGEVFTKPQLWP
